# The supplement of paper PMC8104966
# The other results are listed elsewhere or left out. This data set is noisy: repeats of one test often differ as much as different tests do.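 Fusion between ACE2-bearing and full-length-spike-bearing U2OS cells was measured by imaging as the percentage of nuclei with both cell types' fluorescent markers. An inhibitory hit is a non-toxic compound whose fusion z-score is below -3, more than three standard deviations beneath the plate's DMSO wells.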
# Tested on: U2OS ACE2 x SARS-CoV-2 spike co-culture
# Experiment: cell-cell fusion (fraction fused) z-score vs plate DMSO control; higher = more fusion
# Details: 30 µM; 5 h; toxicity class: non-toxic, passed QC
row,SMILES,cell-cell fusion (z-score)
1,CO/N=C(\C(=O)N[C@@H]1C(=O)N2C(C(=O)[O-])=C(COC(C)=O)CS[C@H]12)c1csc(N)n1.[Na+] [Cefotaxime sodium],inactive: 1.46
2,[Cl-].CN(C)c1ccc2nc3cc\c(cc3sc2c1)=[N+](/C)C [Methylene Blue],inactive: 1.41
3,C[C@]12C/C(=C/O)C(=O)C[C@@H]1CC[C@@H]1[C@@H]2CC[C@@]2(C)[C@H]1CC[C@]2(C)O [Oxymetholone],inactive: 2.2
4,CCc1cc2c(cc1CC)CC(NC[C@H](O)c1ccc(O)c3[nH]c(=O)ccc13)C2.O=C(O)/C=C\C(=O)O [Indacaterol maleate],active: -9.31
5,CCCCCCCCCCCCCCCCOP(=O)([O-])OCC[N+](C)(C)C,active: -6.48
6,CCCCOC(=O)NS(=O)(=O)c1sc(CC(C)C)cc1-c1ccc(Cn2c(CC)nc3c(C)cc(C)nc32)cc1,active: -3.02
7,c1ccc(-c2cnn3cc(-c4ccc(OCCN5CCOCC5)cc4)cnc23)cc1,inactive: 1.73
8,Nc1ncn([C@@H]2O[C@H](CO)[C@@H](O)[C@H]2O)c(=O)n1 [5-azacytidine],inactive: 3.15
9,Nc1ncn([C@@H]2O[C@H](CO)[C@@H](O)[C@H]2O)c(=O)n1,inactive: 2.13
10,CCCCCCCC/C=C\CCCCCCCC(=O)NCCO [N-Oleoylethanolamine],inactive: 1.63
11,CCOC(=O)N1CCN(/[N+]([O-])=N/Oc2ccc([N+](=O)[O-])cc2[N+](=O)[O-])CC1,inactive: 2.72
12,O=c1cc(-c2ccccc2O)oc2cc(O)ccc12,inactive: 1.54
13,CCn1c(=O)[nH]c2cc(Cl)c(Cl)cc21,inactive: -2.68
14,"Clc1ccc(C(c2ccccc2Cl)C(Cl)Cl)cc1 (stereo not drawn) [1-(2-Chlorophenyl)-1-(4-chlorophenyl)-2,2-dichloroethane]",inactive: 2.13
15,CCC(=O)NCC[C@@H]1CCc2ccc3c(c21)CCO3 [Ramelteon],inactive: 2.49
16,Oc1ccc(OCc2ccccc2)cc1,inactive: 2.02
17,CN(Cc1cnc2nc(N)nc(N)c2n1)c1ccc(C(=O)N[C@@H](CCC(=O)O)C(=O)O)cc1 [Methotrexate hydrate],inactive: 2.66
18,C[N+]12CCC(CC1)C(OC(=O)C(O)(c1ccccc1)c1ccccc1)C2.[Br-] (stereo not drawn),inactive: 0.207
19,O=C(O)c1ccc2c(c1)nc(Nc1cccc(Cl)c1)c1ccncc12 [cx-4945 (Silmitasertib)],inactive: 0.656
20,CCN1/C(=C/C(C)=O)Sc2ccc(OC)cc21,inactive: 2
21,CCCCCCCCCCCCCCCCOP(=O)([O-])OCC[N+](C)(C)C [Miltefosine],inactive: -1.04
22,Cl.NCCCCCC(=O)O,inactive: 0.476
23,C#CCN(C)Cc1ccccc1.Cl [Pargyline hydrochloride],inactive: 2.57
24,CC1(C)C(C=C(Cl)Cl)C1C(=O)OC(C#N)c1cccc(Oc2ccccc2)c1 (stereo not drawn),inactive: 1.1

# Pulled one by one from above:
row,SMILES,cell-cell fusion (z-score)
8,Nc1ncn([C@@H]2O[C@H](CO)[C@@H](O)[C@H]2O)c(=O)n1 [5-azacytidine],inactive: 3.15
15,CCC(=O)NCC[C@@H]1CCc2ccc3c(c21)CCO3 [Ramelteon],inactive: 2.49

# More records:

row,SMILES,cell-cell fusion (z-score)
1,C[N+](C)(CCOc1ccccc1)Cc1ccccc1.O=C([O-])c1cc2ccccc2cc1O,inactive: 1.8
2,CCCCC[C@H](O)/C=C/[C@H]1[C@H](O)CC(=O)[C@@H]1CCCCCCC(=O)O [Alprostadil],inactive: 2.4
3,O=S(=O)(O)O.Oc1cccc2cccnc12,inactive: 0.971
4,CC(C)CN(C[C@@H](O)[C@H](Cc1ccccc1)NC(=O)O[C@H]1CO[C@H]2OCC[C@H]21)S(=O)(=O)c1ccc(N)cc1 [Darunavir],inactive: 1.65
5,Cn1cnc([N+](=O)[O-])c1Sc1ncnc2nc[nH]c12 [Azathioprine],inactive: 1.61
6,O=C(/C=C/c1ccc(O)cc1)c1ccccc1,inactive: 0.343
7,N[C@@H](C(=O)N[C@@H]1C(=O)N2C(C(=O)O)=C(Cl)CS[C@H]12)c1ccccc1,inactive: 2.75
8,S=c1[nH]cnc2nc[nH]c12,inactive: 0.536
9,CN1CCN(C(c2ccccc2)c2ccccc2)CC1,inactive: 2.09
10,O=C(N/N=C/c1coc2ccccc2c1=O)c1cccnc1 [STAT5 Inhibitor],inactive: 1.64
11,Cl.NO [Hydroxylamine hydrochloride],inactive: -2.03
12,COC(=O)CCC(C)C1CCC2C3CC[C@@H]4C[C@H](O)CC[C@]4(C)C3C[C@H](O)[C@]12C (stereo partly drawn),inactive: 1.1
13,NS(=O)(=O)c1cc2c(cc1Cl)NCNS2(=O)=O [Hydrochlorothiazide],inactive: 3.36
14,N[C@@H](Cc1c[nH]c2ccc(O)cc12)C(=O)O [5-Hydroxy-L-tryptophan],inactive: 1.21
15,Cl.Cl.N=C(N)N,inactive: 1.5
16,COc1cc2c(cc1OC)-c1cc3ccc(OC)c(OC)c3c[n+]1CC2.O,inactive: 3.96
17,COC(=O)C1=C(C)NC(C)=C(C(=O)OCCN2CCN(C(c3ccccc3)c3ccccc3)CC2)C1c1cccc([N+](=O)[O-])c1 (stereo not drawn),inactive: 1.09
18,COc1ccc(-c2coc3c4c(c(CC=C(C)C)c(O)c3c2=O)OC(C)(C)C=C4)cc1,inactive: 1.95
19,Nc1ccc(N2C(=O)c3ccccc3C2=O)c(Cl)c1 [N-(4-Amino-2-chlorophenyl)phthalimide],inactive: 2.33
20,CN(C)c1nc(N(C)C)nc(N(C)C)n1 [Altretamine (Hexalen)],inactive: 2.32
21,CC[C@@]1(O)C(=O)OCc2c1cc1n(c2=O)Cc2cc3c(CN(C)C)c(O)ccc3nc2-1 [Topotecan],inactive: 3.89
22,Cl.N[C@@H](Cc1cnc[nH]1)C(=O)O.O [L-Histidine monohydrochloride monohydrat],inactive: 3.12
23,CCn1cc(C(=O)O)c(=O)c2cc(F)c(N3CCNC(C)C3)c(F)c21.Cl (stereo not drawn) [Lomefloxacin hydrochloride],inactive: 2.34
24,CN(C)CCN(Cc1ccccc1)c1ccccn1.Cl [Tripelennamine hydrochloride],inactive: 2.29
